Laboratory results as given in paper PMC8358892.
These are yes or no findings as the source states them, for the method shown. Binding seen in cells or lysates may run through a third protein. Some entries that bind do so weakly or less than the wild type. One block for each binder: values may come before it.

Assays:
[1] = target: T1, β‐catenin (human (endogenous in HUVEC)), P35222; test: co-IP; HUVEC lysate (Cell Lysis Buffer for IP with protease and phosphatase inhibitors), β-catenin antibody overnight at 4°C, Protein A/G magnetic beads; cells with or without 100 μg/mL AGEs for 60 min, with or without Y654F plasmid; details: remark: other sources report otherwise
T1 chain: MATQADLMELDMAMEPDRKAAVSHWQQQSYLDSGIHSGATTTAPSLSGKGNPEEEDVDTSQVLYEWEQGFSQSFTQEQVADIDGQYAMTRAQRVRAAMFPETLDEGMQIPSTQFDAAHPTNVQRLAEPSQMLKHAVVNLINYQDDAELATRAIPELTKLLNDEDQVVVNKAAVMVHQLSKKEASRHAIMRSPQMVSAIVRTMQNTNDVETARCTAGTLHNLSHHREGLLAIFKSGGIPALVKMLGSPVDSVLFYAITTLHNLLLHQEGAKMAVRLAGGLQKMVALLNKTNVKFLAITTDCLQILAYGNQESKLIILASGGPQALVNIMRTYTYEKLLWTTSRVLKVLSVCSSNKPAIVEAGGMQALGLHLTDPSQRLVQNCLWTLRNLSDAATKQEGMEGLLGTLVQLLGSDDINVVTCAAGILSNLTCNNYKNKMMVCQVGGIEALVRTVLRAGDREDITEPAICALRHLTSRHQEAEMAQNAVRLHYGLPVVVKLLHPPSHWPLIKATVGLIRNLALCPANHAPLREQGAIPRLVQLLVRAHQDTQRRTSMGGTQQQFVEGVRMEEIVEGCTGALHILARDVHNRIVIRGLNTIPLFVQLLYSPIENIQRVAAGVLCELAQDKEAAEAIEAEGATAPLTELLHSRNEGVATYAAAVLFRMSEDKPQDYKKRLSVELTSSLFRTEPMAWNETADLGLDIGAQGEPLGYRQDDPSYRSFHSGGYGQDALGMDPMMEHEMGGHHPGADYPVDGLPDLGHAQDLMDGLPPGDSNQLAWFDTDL

[2] = target: β‐catenin Y654 phospho‐deficient mutant (Y654F) (UniProt P35222); test: as above
[3] = target: β‐catenin (mouse mesenteric vessels) (mouse (endogenous in mesenteric vessels of C57 mice)) (UniProt Q02248); test: co-IP; mesenteric vessels of C57 mice given PBS or AGEs (10 mg/kg i.p., 7 days); blots of VE-cadherin, α-catenin and β-catenin; precipitating antibody not stated for this tissue

- binding [1]: binds
B1: Vascular endothelial (VE)‐cadherin, P33151 48-784 (protein)
chain: DWIWNQMHIDEEKNTSLPHHVGKIKSSVSRKNAKYLLKGEYVGKVFRVDAETGDVFAIERLDRENISEYHLTAVIVDKDTGENLETPSSFTIKVHDVNDNWPVFTHRLFNASVPESSAVGTSVISVTAVDADDPTVGDHASVMYQILKGKEYFAIDNSGRIITITKSLDREKQARYEIVVEARDAQGLRGDSGTATVLVTLQDINDNFPFFTQTKYTFVVPEDTRVGTSVGSLFVEDPDEPQNRMTKYSILRGDYQDAFTIETNPAHNEGIIKPMKPLDYEYIQQYSFIVEATDPTIDLRYMSPPAGNRAQVIINITDVDEPPIFQQPFYHFQLKENQKKPLIGTVLAMDPDAARHSIGYSIRRTSDKGQFFRVTKKGDIYNEKELDREVYPWYNLTVEAKELDSTGTPTGKESIVQVHIEVLDENDNAPEFAKPYQPKVCENAVHGQLVLQISAIDKDITPRNVKFKFILNTENNFTLTDNHDNTANITVKYGQFDREHTKVHFLPVVISDNGMPSRTGTSTLTVAVCKCNEQGEFTFCEDMAAQVGVSIQAVVAILLCILTITVITLLIFLRRRLRKQARAHGKSVPEIHEQLVTYDEEGGGEMDTTSYDVSVLNSVRRGGAKPPRPALDARPSLYAQVQKPPRHAPGAHGGPGEMAAMIEVKKDEADHDGDGPPYDTLHIYGYEGSESIAESLSSLGTDSSDSDVDYDFLNDWGPRFKMLAELYGSDPREELLY

- binding [2]: binds
B2: Vascular endothelial (VE)‐cadherin (protein, UniProt P33151 48-784)
chain: B1 chain

- binding [3]: binds
B3: VE‐cadherin (mouse mesenteric vessels) (protein, UniProt P55284 46-784)
chain: DWIWNQMHIDEEKNESLPHYVGKIKSNVNRQNAKYVLQGEFAGKIFGVDANTGNVLAYERLDREKVSEYFLTALIVDKNTNKNLEQPSSFTVKVHDINDNWPVFSHQVFNASVPEMSAIGTSVIRVTAVDADDPTVAGHATVLYQIVKGNEYFSIDNSGLIFTKIKNLDREKQAEYKIVVETQDALGLRGESGTATVMIRLEDINDNFPVFTQSTYTFSVPEDIRVGKPLGFLTVVDPDEPQNRMTKYSIMQGEYRDTFTIETDPKRNEGIIKPTKSLDYEVIQQYTFYIEATDPTIRYEYLSSTSGKNKAMVTINVLDVDEPPVFQRHFYHFKLPENQKKPLIGTVVAKDPDKAQRSIGYSIRKTSDRGQFFRITKQGNIYNEKELDRETYAWYNLTVEANELDSRGNPVGKESIVQVYIEVLDENDNPPEFAQPYEPKVCENAAQGKLVVQISATDKDVVPVNPKFKFALKNEDSNFTLINNHDNTANITVKYGQFNREHAKFHYLPVLISDNGVPSLTGTSTLTVGVCKCNEQGEFTFCEEMAAQAGVSIQALVAIFLCILTITVITLLIILRRRIRKQAHAHSKSALEIHEQLVTYDEEGGGEMDTTSYDVSVLNSVRGGSTKPLRSTMDARPAVYTQVQKPPRLAPGLHGGPREMATMIDVKKEEADNDGGGPPYDTLHIYGYEGAESIAESLSSLSTNSSDSDIDYDFLNDWGPRFKMLAELYGSDPQEELII
